Data published in US20070105940A1, “Method for treating pain” (ALLERGAN, INC., priority 2005, published 2007).

How the values were obtained:
[1] = system: nociceptive response to formalin injected into the rat paw; experiment: Nociceptive response to formalin injected into the rat paw; assay type: in vivo
[2] = system: OFF cells of the rostral ventromedial medulla; experiment: Inhibitory effect of formalin on OFF cells of the rostral ventromedial medulla; assay type: in vivo, rat; details: FIG. 2B

In the case of `Cc1c(C(=O)NN2CCCCC2)nn(-c2ccc(Cl)cc2Cl)c1-c1ccc(I)cc1` [AM251], the “effect on the anti-hyperalgesic effect of AA-5-HT” value ([1]; AA-5-HT 4 μg/rat intra-PAG, AM251 (nmol/rat), capsazepine 6 nmol/rat) was “counteracted”, the “effect on the action of AA-5-HT injected into the paw” value ([1]; AA-5-HT 1 mg/rat s.c. into the paw) was “counteracted” and the “effect on the action of AA-5-HT on OFF cells” value [2] was “reversed”.
